# Experimental data reported in doi:10.1101/2021.07.19.452877.
# Protein sequences, listed by entry. Tags and fused reporters are not part of them. Lines headed by an entry give the natural chain unless they say otherwise; changes in a name come on top.
# UniProt Q07065, whole entry: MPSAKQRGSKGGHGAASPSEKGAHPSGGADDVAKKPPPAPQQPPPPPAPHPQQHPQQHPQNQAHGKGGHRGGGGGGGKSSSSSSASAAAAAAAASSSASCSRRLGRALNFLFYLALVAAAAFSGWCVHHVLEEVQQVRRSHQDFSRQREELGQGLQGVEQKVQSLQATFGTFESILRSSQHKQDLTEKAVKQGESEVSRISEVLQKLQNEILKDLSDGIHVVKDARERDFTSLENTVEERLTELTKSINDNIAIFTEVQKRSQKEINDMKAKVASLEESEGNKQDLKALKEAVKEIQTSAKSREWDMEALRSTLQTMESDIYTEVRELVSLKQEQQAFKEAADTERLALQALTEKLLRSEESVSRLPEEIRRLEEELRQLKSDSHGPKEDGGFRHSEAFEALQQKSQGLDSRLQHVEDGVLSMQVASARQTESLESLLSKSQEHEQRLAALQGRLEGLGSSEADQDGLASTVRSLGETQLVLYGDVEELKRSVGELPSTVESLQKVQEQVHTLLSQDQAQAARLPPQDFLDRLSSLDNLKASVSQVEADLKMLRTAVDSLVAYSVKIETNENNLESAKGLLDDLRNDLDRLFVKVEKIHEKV
# Results are given in words; binding and its absence hold for the method and conditions named. In cells and extracts the contact can be indirect. Some results given as binding are weak or reduced against the parent protein; the word gives no strength. Where a sequence is shown, tags or fusion partners need not be part of it.
# T1: HA-tagged catalytic mutant SPP D265A (signal peptide peptidase) (human) (UniProt Q8TCT9)
# T1 sequence: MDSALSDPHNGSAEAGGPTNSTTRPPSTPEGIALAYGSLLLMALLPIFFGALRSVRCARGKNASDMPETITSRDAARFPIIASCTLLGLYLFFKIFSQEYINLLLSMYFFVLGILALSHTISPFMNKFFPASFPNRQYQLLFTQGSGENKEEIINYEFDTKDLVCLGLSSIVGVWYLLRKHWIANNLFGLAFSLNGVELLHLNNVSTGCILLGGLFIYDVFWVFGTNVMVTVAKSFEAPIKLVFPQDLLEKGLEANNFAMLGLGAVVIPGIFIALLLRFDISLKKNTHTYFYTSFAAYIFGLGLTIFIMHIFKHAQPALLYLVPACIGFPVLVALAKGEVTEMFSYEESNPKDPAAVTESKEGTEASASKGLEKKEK
# Target: T1, HA-tagged catalytic mutant SPP D265A (signal peptide peptidase) (human)
# Assay: co-IP
row,Molecule,binding
1,"CLIMP63, endogenous ER protein (from UniProt Q07065 1-602)",no binding
2,"squalene synthase (SQS), endogenous (enzyme, UniProt P37268 1-417) MEFVKCLGHPEEFYNLVRFRIGGKRKVMPKMDQDSLSSSLKTCYKYLNQTSRSFAAVIQALDGEMRNAVCIFYLVLRALDTLEDDMTISVEKKVPLLHNFHSFLYQPDWRFMESKEKDRQVLEDFPTISLEFRNLAEKYQTVIADICRRMGIGMAEFLDKHVTSEQEWDKYCHYVAGLVGIGLSRLFSASEFEDPLVGEDTERANSMGLFLQKTNIIRDYLEDQQGGREFWPQEVWSRYVKKLGDFAKPENIDLAVQCLNELITNALHHIPDVITYLSRLRNQSVFNFCAIPQVMAIATLAACYNNQQVFKGAVKIRKGQAVTLMMDATNMPAVKAIIYQYMEEIYHRIPDSDPSSSKTRQIISTIRTQNLPNCQLISRSHYSPIYLSFVMLLAALSWQYLTTLSQVTEDYVQTGEH",binds
